PubChem BioAssay AID2685 (National Center for Advancing Translational Sciences (NCATS), 2010)
Some of the results follow. The main result of the screen is listed elsewhere. These columns were measured beside it and carry no call. Compounds called inactive in the main read-out are mostly missing here. Words in brackets tell the shape of the fitted curve; partial curves, single points and poor fits give uncertain potencies.

Experiment: qHTS Assay for Lipid Storage Modulators in Drosophila S3 Cells;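 for cell number change: cells counted by Cell Tracker Red CMTPX staining in the red channel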
Conditions: BODIPY lipid droplet fluorescence, 18-24 h; for cell number change: measured here: cell count max response, cells fed with added oleic acid
Procedure, shortened: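 Laser-scanning cytometry quantifies lipid droplet accumulation (500–530 nm total intensity; droplet/cell object ratio) in oleic acid-fed (400 uM added) Drosophila S3 cells treated with a concentration series. 20 uM Triacsin C defined 100% inhibition.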

[1] = measured here: cell number channel AC50, cells fed with added oleic acid
[2] = measured here: lipid fluorescence (Fed channel) AC50, cells fed with added oleic acid

Compound	cell number change [%]	AC50 [1]	AC50 [2]
O=C1COc2ccc(C(=O)COC(=O)c3ccc(S(=O)(=O)C(F)F)cc3)cc2N1	31.3	29.1 µM [rising, single point]	–
CCn1c(=O)n(CC)c2cc(N3CCCC3)c(NC(=O)c3ccc(C)c([N+](=O)[O-])c3)cc21	3.88	–	–
O=C(CSc1nc2ccccc2c(=O)n1Cc1ccccc1)Nc1ccc(Br)cc1C(=O)O	5.65	–	0.651 µM [rising, full curve]
COc1cc(C(=O)Nc2ccc3c(c2)OCO3)ccc1OCc1c(C)noc1C	–	0.146 µM [rising, partial curve, poor fit]	–
CC(C)(C)n1nc2c(c1NC(=O)c1ccccc1C(F)(F)F)CS(=O)(=O)C2	8.8	–	0.82 µM [rising, full curve, poor fit]
CC1CCN(S(=O)(=O)N2CCC(C(=O)NCc3cccs3)CC2)CC1	1.22	–	3.66 µM [rising, partial curve, poor fit]
CC(C)(C)n1ncc2c(=O)n(CC(=O)N3CCCCC3)cnc21	-43.5	6.51 µM [falling, single point]	7.31 µM [falling, partial curve, poor fit]
Cc1ccc(C(=O)Nc2ccc3c(c2)OCO3)cc1NC(=O)c1ccco1	–	0.00517 µM [rising, full curve, poor fit]	–
Cc1ccccc1NC1=NCC(c2ccc([N+](=O)[O-])cc2)S1 (stereo unspecified)	–	–	0.82 µM [falling, full curve, poor fit]
CCOC(=O)N1CCN(C(=O)c2cc3ccccc3o2)CC1	17.3	–	0.58 µM [rising, single point]
C[n+]1ccccc1N1CCN(c2ccccc2Cl)CC1	33.3	32.6 µM [rising, single point]	0.58 µM [falling, full curve]
COc1ccccc1CNC(=O)CSc1nc2ccccc2c(=O)n1CCCN1CCOCC1	-6.15	5.17 µM [falling, single point]	–
O=C(CSc1nc2ccccc2n1CC(=O)NCc1ccccc1)NCc1ccco1	-5.47	–	2.06 µM [rising, single point]
Cc1ccc2nc(CSc3nnc(Cc4cccs4)n3C3CCCCC3)cc(=O)n2c1	-16.7	–	0.461 µM [rising, full curve]
Cc1cc(C)cc(N(CC(=O)NC(C)(C)C)C(=O)CCC(=O)Nc2ccccn2)c1	10.5	–	18.4 µM [rising, single point]
O=C(Cn1cnc2scc(-c3ccc(F)cc3)c2c1=O)NCC(c1ccco1)N1CCCC1 (stereo unspecified)	82	20.6 µM [rising, single point]	–
Cc1cc2nc(-c3ccc(SCC(=O)N4CCc5ccccc54)nc3)[nH]c2cc1C	-18.6	0.731 µM [falling, full curve, poor fit]	0.058 µM [falling, full curve, poor fit]

Three of the compounds above, bar-delimited:
Compound | cell number change [%] | AC50 [1] | AC50 [2]
C[n+]1ccccc1N1CCN(c2ccccc2Cl)CC1 | 33.3 | 32.6 µM [rising, single point] | 0.58 µM [falling, full curve]
COc1ccccc1CNC(=O)CSc1nc2ccccc2c(=O)n1CCCN1CCOCC1 | -6.15 | 5.17 µM [falling, single point] | –
O=C(CSc1nc2ccccc2n1CC(=O)NCc1ccccc1)NCc1ccco1 | -5.47 | – | 2.06 µM [rising, single point]

The results go on:

Compound	cell number change [%]	AC50 [1]	AC50 [2]
CCOC(=O)N1CCN(C(=O)Nc2ccc3nc(-c4ccccn4)c(-c4ccccn4)nc3c2)CC1	–	–	23.1 µM [falling, partial curve]
CCNc1ccc(C(=O)NN=C2CCCC2)cc1[N+](=O)[O-]	90.1	0.146 µM [rising, full curve, poor fit]	0.206 µM [rising, full curve]
CSCCC(NC(=O)c1ccco1)C(=O)NCC(C)(C)N1CCOCC1 (stereo unspecified)	9.98	–	0.164 µM [rising, full curve, poor fit]
CN(C)C(=O)COC(=O)c1cc(Cl)cc(Cl)c1N	–	2.91 µM [rising, single point]	18.4 µM [rising, partial curve]
CC(=O)Nc1ccc(S(=O)(=O)NCC(=O)OCC(=O)NCc2ccco2)cc1	-100	18.4 µM [falling, single point]	4.11 µM [rising, full curve, poor fit]
CCc1cc(C(=O)N2CCCC(Nc3ccc(F)c(F)c3)C2)n(C)n1 (stereo unspecified)	10.8	–	0.259 µM [falling, partial curve, poor fit]
COc1cccc(NC(=O)CSc2nc3ccccc3nc2N2CCOCC2)c1	-29.1	–	13 µM [falling, partial curve, poor fit]
Cc1cc(C)c(C#N)c(SCC(=O)C(C)(C)C)n1	-13.3	–	0.291 µM [falling, full curve]
C#CCOCCOCCOCCNc1nc(N2CCN(C(=O)CCCCCCCCCCNC(=O)[C@@H](CCSC)n3cc(CCO)nn3)CC2)nc(N2CCN(C(=O)CCCCCCCCCCNC(=O)[C@H]([C@@H](C)CC)n3cc(CCCCCN)nn3)CC2)n1	-75.8	25.9 µM [falling, single point]	–
Cc1onc(C(=O)Nc2ccc3c(c2)OCO3)c1[N+](=O)[O-]	6.65	1.46 µM [rising, full curve, poor fit]	29.1 µM [rising, single point]
Cc1cc(SCC(=O)N2CCCC2=O)nc2c(C)cccc12	45.4	8.2 µM [rising, partial curve]	6.51 µM [rising, single point]
O=C(c1cc(Cl)ccc1Cl)N1CCOCC1	-9.26	0.184 µM [rising, full curve, poor fit]	0.651 µM [falling, single point]
O=S(=O)(N1CCOCC1)n1nnc2ccccc21	-14.5	–	0.00651 µM [falling, full curve, poor fit]
CC1(C)CC(=O)C2=C(C1)Nc1ccccc1NC2	17	–	6.51 µM [falling, single point]
CC1CCCCC12NC(=O)N(CC(=O)Nc1sccc1C(N)=O)C2=O (stereo unspecified)	18.6	–	0.184 µM [rising, full curve]
CC(=O)Nc1cccc(C(=O)/C=C/c2ccc(/C=C/C(=O)c3cccc(NC(C)=O)c3)cc2)c1	–	–	4.61 µM [falling, partial curve]
CCOC(=O)C1=C(c2ccccc2)NC(=O)NC1c1ccc(O)c(OCC)c1 (stereo unspecified)	-6.34	6.51 µM [rising, partial curve, poor fit]	6.51 µM [rising, partial curve, poor fit]
